Test results: patent US20110217391A1, “MATRIX METALLOPROTEASE (MMP) PRODUCTION INHIBITOR” (FUJIFILM CORPORATION, priority 2010, published 2011)
At least one compound was matched to its structure with a doubt left.

Tested on: matrix metalloprotease 9
Assay: Suppression of production of matrix metalloprotease 9 on epidermis, TGF β1 or β2 induction, ELISA of culture supernatant
Format: cell-based, human
Conditions: keratinocytes, TGF β1 or β2 5 ng/ml, 0.15 μg/ml, 48 hours
Procedure: Thereafter, the medium was exchanged with a test medium which had been prepared by adding TGF (transforming growth factor) β1 or β2 which is known to be released as a matrix metalloprotease 9 production promoting factor from cells upon UV irradiation, to a 1% (v/v) FBS-containing MEM medium to a final concentration of 5 ng/ml, so as to produce a matrix metalloprotease 9 induction test system. […] Specifically, the concentration of a grape extract was set at 100 μg/ml, and the concentration of a Salacia plant extract (the present invention) was set at 100 μg/ml. These test substances were each added to a test medium, and the medium was then exchanged with a fresh one. Thereafter, culture was carried out for 48 hours. After completion of the culture, a culture supernatant was recovered. The recovered supernatant was assayed according to the ELISA method with Matrix Metalloprotease-9, Human, Assay (GE Healthcare, RPN2614). Measurement was carried out in accordance with protocols provided by the distributer, and the value at a wavelength of 630 nm was measured using a wavelength-tunable microplate reader, Sunrise Rainbow Thermo (SUNRISE) and was then quantified. […]

SMILES: CC1=C(/C=C/C(C)=C/C=C/C(C)=C/C(=O)O)C(C)(C)CCC1 [retinoic acid]
- effect of suppressing the production of matrix metalloprotease 9 (MMP9 protein expression level): did not have the effect of suppressing the production of matrix metalloprotease 9
